PubChem BioAssay AID504807 | Drosophila RNAi Screening Center, 2011
Aim: 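Factors needed for cleavage of pre-mRNA from replication-dependent histone genes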. Cell system: Drosophila Dmel-2 cells. Knock-down reagent: long dsRNA against Drosophila genes, 250 ng dsRNA per well. Timing: about 5 days (reporter added on day 3, imaged 2 days later). Detection: 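GFP reporter signal in each well imaged and visually compared with adjacent wells and a U7 snRNA oligo positive control using collages, with hits rated weak, medium or strong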. Hit rule: 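Confirmed hit: dsRNA gave visibly higher GFP reporter fluorescence that reproduced in repeated knock-down experiments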. Calls: active = confirmed hit; inactive = not confirmed.
Only reagents picked out of a larger screen are listed. 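All listed dsRNAs looked positive in the first pass but only 20 held up on retesting; weak-to-strong grades are not deposited.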 Names joined by + are all predicted targets of the reagent.

no.	Gene	call
1	wntD (wnt inhibitor of Dorsal)	inactive
2	CG13699	inactive
3	CG12204	inactive
4	Ino80 (INO80 complex subunit)	inactive
5	CG10674	inactive
6	Sym (Symplekin)	active
7	CG32694	inactive
8	Stt3B	inactive
9	CG33270	inactive
10	Veneno	active
11	CAH6 (Carbonic anhydrase 6)	inactive
12	Klp67A + CG34456	inactive
13	CG34382	inactive
14	dtn (detonator)	inactive
15	CG3726	inactive
16	Hmr (Hybrid male rescue)	inactive
17	CG18649	inactive
18	CG10918	inactive
19	MRG15 (MORF-related gene 15)	inactive
20	CG5235	inactive
21	Fis1 (Fission, mitochondrial 1)	inactive
22	CG4613	inactive
23	tsl (torso-like)	inactive
24	wake (wide awake)	inactive
25	ND-49L (NADH dehydrogenase (ubiquinone) 49 kDa subunit-like)	inactive
26	tinc (tincar)	inactive
27	CG2750	inactive
28	Muc30E (Mucin 30E)	inactive
29	CG15330	inactive
30	Nelf-E (Negative elongation factor E)	active
31	CG13032	inactive
32	Bruce (BIR repeat containing ubiquitin-conjugating enzyme)	inactive
33	CG14417	inactive
34	Pkc98E (Protein C kinase 98E)	inactive
35	zye	inactive
36	CG6707	inactive
37	CG13247	inactive
38	Pc (Polycomb)	inactive
39	Tti1 (Telo2 interacting protein 1)	inactive
40	CG2574	inactive
41	CG10562	inactive
42	CG14450	inactive
43	CG13461	inactive
44	mof (males absent on the first)	inactive
45	CG30058 + CG34312 + CG34235	inactive
46	CG5267	inactive
47	CG18367	inactive
48	CG7326	inactive
49	Crk (Crk oncogene)	inactive
50	Nlg4 (Neuroligin 4)	inactive
51	Kdm3 (Lysine demethylase 3)	inactive
52	nuf (nuclear fallout)	inactive
53	NFAT (NFAT nuclear factor)	inactive
54	CG11598	inactive
55	Lsm10	active
56	san (separation anxiety)	inactive
57	CG13894	inactive
58	CG11262	inactive
59	Gyf (Gigyf)	active
60	CG1824	inactive
61	CG14424	inactive
62	Rh2 (Rhodopsin 2)	inactive
63	conu (conundrum)	inactive
64	mib1 (mind bomb 1)	inactive
65	CG31454	inactive
66	Rim (Rab3 interacting molecule)	inactive
67	Rcd1 (Reduction in Cnn dots 1)	inactive
68	BobA	inactive
69	CG2841	inactive
70	cwo (clockwork orange)	inactive
71	flw (flapwing)	inactive
72	AGO2 (Argonaute 2)	inactive
73	CG17048	inactive
74	CG42699	inactive

The list goes on (17 carried over from the part before).
no.	Gene	call
58	CG11262	inactive
59	Gyf (Gigyf)	active
60	CG1824	inactive
61	CG14424	inactive
62	Rh2 (Rhodopsin 2)	inactive
63	conu (conundrum)	inactive
64	mib1 (mind bomb 1)	inactive
65	CG31454	inactive
66	Rim (Rab3 interacting molecule)	inactive
67	Rcd1 (Reduction in Cnn dots 1)	inactive
68	BobA	inactive
69	CG2841	inactive
70	cwo (clockwork orange)	inactive
71	flw (flapwing)	inactive
72	AGO2 (Argonaute 2)	inactive
73	CG17048	inactive
74	CG42699	inactive
75	CG8620	inactive
76	Rack1 (Receptor of activated protein kinase C 1)	active
77	CG11437	inactive
78	CG15784	inactive
79	CG34280	inactive
80	Slbp (Stem-loop binding protein)	active
81	Drep3 (DNA fragmentation factor-related protein 3)	inactive
82	gt (giant)	inactive
83	Sirt2 (Sirtuin 2)	inactive
84	Ddr (Discoidin domain receptor)	inactive
85	UQCR-14L (Ubiquinol-cytochrome c reductase 14 kDa subunit-like)	inactive
86	CG13800 (retired record)	inactive
87	CG14565	inactive
88	lola (longitudinals lacking)	active
89	mfrn (mitoferrin)	inactive
90	Cpr50Ca (Cuticular protein 50Ca)	inactive
91	slbo (slow border cells)	inactive
92	Actbeta (Activin-beta)	inactive
93	CG42342	inactive
94	Cadps (Calcium-dependent secretion activator)	inactive
95	CG14292	inactive
96	Dr (Drop)	inactive
97	CG32298 + CG32299	inactive
98	Pop5 (POP5 ribonuclease P/MRP subunit)	inactive
99	tld (tolloid)	inactive
100	tum (tumbleweed)	inactive
101	CG5217	inactive
102	CG15034	inactive
103	CG32187	inactive
104	CG17300	inactive
105	Dysb (Dysbindin)	inactive
106	CG14191	inactive
107	Cep290 (Centrosomal protein 290kDa)	inactive
108	CG10761	inactive
109	trio	inactive
110	mus81	inactive
111	CG15927	inactive
112	FLASH (FLICE-associated huge protein)	inactive
113	Pnn (Pinin)	inactive
114	CG14079	inactive
115	CG10041	inactive
116	shd (shade)	inactive
117	Frl (Formin-like)	inactive
118	cic (capicua)	inactive
119	Aduk (Another Drosophila Unc-51-like kinase)	active
120	Cad86C (Cadherin 86C)	inactive
121	Actn3 (alpha actinin 3)	inactive
